In the supplement of paper PMC6411743:
± gives the standard deviation of the averaged measurements. Only a part is listed here, and it is no random draw. Small differences around the control level are noise.

By UniProt entry, the sequences of proteins in these tests, tags left out. Where a name states a change or a piece, a line headed by the entry shows the natural chain unless it says otherwise.
UniProt O15162: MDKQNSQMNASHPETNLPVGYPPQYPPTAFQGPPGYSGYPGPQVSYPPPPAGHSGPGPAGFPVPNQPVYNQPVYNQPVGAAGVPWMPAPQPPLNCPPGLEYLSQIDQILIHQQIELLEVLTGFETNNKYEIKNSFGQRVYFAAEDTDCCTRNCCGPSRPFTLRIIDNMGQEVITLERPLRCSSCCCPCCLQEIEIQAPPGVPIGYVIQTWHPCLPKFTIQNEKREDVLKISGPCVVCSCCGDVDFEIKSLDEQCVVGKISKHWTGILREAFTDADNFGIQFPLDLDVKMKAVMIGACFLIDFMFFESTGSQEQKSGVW
UniProt Q7Z401: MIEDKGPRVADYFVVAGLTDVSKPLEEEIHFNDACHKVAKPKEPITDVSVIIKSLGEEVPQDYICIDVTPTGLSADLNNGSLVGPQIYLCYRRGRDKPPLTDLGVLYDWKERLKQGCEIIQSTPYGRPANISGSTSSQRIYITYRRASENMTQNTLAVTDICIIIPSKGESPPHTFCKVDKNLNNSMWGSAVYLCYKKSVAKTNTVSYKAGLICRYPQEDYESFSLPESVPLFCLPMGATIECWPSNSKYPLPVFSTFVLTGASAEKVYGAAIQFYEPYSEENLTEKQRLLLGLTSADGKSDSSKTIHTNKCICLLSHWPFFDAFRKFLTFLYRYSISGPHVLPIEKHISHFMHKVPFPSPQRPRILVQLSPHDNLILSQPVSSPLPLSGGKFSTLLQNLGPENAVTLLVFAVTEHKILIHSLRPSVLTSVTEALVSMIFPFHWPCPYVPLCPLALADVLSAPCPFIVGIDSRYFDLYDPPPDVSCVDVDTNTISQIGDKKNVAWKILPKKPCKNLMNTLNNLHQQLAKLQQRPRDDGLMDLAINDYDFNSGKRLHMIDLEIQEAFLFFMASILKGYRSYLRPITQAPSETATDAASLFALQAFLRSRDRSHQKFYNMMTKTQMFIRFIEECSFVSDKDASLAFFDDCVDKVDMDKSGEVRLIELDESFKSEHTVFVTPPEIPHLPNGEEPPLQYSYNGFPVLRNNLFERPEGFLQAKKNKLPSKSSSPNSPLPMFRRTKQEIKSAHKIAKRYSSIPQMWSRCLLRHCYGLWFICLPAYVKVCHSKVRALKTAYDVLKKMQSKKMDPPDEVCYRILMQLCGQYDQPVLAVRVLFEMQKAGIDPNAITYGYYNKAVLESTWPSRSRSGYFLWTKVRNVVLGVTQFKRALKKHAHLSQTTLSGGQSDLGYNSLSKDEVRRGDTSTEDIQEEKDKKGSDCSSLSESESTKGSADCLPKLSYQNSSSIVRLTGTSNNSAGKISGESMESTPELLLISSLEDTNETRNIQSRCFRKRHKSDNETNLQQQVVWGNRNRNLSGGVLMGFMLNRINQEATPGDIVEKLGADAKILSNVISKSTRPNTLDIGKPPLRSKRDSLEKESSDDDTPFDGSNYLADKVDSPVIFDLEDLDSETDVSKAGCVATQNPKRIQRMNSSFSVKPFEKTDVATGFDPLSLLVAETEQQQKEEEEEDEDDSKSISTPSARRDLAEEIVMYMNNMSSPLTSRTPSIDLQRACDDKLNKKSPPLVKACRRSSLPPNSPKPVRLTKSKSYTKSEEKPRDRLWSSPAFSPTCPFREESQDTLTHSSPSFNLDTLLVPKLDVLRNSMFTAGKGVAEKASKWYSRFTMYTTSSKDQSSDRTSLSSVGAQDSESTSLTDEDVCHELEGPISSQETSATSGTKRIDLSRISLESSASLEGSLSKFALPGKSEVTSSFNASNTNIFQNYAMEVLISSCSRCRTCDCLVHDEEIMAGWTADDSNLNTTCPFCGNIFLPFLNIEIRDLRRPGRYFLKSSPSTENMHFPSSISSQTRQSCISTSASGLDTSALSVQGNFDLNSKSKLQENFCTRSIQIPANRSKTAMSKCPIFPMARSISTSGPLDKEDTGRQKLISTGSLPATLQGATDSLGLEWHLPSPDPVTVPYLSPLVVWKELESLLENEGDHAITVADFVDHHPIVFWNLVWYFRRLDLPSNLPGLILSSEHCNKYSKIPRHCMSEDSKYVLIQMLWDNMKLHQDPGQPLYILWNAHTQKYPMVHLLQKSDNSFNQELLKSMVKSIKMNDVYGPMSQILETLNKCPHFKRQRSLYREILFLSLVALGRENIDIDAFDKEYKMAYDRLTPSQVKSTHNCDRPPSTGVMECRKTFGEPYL
UniProt Q7Z6M4: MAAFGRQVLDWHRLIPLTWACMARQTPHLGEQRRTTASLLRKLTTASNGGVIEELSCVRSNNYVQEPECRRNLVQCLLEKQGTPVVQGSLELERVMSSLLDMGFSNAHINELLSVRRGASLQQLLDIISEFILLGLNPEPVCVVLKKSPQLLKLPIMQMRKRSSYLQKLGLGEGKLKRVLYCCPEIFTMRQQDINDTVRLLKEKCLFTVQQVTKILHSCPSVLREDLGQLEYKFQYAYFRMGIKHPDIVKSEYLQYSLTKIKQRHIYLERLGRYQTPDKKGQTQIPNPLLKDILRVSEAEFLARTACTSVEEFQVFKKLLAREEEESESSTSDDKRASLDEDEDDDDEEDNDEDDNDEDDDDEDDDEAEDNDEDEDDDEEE
UniProt P99999: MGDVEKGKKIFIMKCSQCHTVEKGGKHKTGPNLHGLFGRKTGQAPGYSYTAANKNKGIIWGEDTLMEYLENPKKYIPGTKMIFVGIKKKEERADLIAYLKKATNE
UniProt A4D1U4: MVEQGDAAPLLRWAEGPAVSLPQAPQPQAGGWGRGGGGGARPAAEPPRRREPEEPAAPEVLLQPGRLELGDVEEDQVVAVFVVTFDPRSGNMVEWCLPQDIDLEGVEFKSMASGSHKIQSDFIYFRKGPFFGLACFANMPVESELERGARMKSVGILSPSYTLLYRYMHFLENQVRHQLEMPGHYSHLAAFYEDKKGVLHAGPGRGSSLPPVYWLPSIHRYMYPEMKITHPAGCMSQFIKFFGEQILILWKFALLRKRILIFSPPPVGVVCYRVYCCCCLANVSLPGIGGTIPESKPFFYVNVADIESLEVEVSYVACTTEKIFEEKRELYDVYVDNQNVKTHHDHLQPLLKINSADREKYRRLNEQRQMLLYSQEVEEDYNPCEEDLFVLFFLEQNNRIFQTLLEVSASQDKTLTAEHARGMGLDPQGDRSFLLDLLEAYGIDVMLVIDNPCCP
UniProt P41732: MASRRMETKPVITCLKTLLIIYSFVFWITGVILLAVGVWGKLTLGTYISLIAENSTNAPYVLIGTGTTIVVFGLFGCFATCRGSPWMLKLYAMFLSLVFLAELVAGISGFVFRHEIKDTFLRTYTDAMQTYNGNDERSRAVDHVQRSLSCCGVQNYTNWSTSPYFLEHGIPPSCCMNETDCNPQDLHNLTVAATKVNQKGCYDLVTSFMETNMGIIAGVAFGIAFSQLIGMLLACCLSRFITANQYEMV
UniProt O95870: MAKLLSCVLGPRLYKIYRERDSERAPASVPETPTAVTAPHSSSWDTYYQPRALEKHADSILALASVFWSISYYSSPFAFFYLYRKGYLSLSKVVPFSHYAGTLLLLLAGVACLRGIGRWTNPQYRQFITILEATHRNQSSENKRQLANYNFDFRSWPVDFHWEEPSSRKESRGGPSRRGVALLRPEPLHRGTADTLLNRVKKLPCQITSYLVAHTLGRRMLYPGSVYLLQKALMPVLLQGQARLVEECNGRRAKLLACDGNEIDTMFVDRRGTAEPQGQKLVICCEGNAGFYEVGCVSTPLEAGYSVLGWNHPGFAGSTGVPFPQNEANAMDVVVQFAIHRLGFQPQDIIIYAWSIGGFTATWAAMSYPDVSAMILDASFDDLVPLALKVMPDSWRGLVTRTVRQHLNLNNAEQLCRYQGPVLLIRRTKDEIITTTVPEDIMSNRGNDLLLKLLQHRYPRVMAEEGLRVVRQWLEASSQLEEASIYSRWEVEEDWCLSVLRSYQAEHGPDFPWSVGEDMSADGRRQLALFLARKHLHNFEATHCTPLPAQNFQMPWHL
UniProt A5PLN9: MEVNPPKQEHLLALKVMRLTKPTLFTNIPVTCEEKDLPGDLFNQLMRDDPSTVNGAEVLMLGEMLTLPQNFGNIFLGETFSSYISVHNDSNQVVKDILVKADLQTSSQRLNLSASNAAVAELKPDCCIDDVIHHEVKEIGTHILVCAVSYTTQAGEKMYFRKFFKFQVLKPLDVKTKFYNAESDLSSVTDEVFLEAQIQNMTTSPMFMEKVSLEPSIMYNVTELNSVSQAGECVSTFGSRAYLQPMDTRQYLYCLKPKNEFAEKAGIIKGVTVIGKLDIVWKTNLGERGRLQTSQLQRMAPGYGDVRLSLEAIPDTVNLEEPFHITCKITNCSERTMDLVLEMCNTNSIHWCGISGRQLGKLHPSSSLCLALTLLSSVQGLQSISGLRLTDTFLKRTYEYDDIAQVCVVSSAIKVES
UniProt Q16595: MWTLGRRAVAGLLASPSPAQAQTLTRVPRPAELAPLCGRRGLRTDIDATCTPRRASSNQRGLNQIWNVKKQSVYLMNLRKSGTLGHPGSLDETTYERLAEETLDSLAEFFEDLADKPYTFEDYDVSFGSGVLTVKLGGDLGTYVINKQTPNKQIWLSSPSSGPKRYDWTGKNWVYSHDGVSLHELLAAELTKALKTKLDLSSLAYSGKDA
UniProt P55854, whole entry: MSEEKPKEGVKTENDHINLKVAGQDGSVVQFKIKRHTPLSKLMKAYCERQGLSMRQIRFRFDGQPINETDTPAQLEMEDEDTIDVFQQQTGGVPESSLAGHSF
UniProt P63098, whole entry, looked up: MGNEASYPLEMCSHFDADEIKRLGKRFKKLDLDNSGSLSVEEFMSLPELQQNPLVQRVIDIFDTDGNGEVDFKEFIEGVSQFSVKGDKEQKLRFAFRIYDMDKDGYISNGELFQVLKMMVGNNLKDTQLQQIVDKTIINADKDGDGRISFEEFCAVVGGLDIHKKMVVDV
UniProt P29323: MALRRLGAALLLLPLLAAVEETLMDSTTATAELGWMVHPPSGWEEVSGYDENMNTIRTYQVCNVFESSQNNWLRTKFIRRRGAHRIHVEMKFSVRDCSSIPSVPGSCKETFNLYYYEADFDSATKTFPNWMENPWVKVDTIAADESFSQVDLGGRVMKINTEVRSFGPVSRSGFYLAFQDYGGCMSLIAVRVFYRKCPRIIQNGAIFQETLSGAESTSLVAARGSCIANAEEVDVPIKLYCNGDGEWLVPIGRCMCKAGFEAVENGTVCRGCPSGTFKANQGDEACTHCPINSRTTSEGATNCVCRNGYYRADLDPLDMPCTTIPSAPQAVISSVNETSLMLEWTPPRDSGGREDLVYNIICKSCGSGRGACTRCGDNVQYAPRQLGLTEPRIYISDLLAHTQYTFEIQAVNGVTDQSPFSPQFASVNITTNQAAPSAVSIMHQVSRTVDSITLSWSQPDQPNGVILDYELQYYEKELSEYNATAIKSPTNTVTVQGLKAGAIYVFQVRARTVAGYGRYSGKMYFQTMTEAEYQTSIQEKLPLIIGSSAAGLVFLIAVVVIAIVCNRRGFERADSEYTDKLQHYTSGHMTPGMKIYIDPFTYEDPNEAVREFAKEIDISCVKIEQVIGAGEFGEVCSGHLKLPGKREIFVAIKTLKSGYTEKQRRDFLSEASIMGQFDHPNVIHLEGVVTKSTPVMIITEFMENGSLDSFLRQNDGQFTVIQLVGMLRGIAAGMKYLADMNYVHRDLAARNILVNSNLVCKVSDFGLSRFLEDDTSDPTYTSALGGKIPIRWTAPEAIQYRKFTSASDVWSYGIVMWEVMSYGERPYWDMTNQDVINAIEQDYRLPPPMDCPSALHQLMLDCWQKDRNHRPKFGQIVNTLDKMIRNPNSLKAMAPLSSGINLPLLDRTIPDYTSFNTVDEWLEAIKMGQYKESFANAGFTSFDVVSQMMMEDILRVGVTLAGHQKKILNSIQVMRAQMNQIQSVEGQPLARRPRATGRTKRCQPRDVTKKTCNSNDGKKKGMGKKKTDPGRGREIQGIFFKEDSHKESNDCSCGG
UniProt Q8N8S7: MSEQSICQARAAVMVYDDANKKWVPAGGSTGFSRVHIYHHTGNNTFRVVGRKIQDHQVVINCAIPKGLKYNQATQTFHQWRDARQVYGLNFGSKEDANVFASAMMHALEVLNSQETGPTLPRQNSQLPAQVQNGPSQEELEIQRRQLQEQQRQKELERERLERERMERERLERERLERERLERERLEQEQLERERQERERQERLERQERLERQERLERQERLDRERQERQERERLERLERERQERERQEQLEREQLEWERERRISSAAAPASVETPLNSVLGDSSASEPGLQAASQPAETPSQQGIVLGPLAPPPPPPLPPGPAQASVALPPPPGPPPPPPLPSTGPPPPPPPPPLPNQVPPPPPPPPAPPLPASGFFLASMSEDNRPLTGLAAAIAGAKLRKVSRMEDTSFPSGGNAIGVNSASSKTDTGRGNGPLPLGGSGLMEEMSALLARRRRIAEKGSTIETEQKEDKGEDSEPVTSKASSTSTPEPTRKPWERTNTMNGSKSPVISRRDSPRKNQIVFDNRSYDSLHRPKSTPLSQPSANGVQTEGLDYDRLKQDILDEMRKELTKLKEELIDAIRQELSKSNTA

Compound: Nc1ncnc2c1ncn2[C@@H]1O[C@H](COP(=O)(O)OP(=O)(O)OP(=O)(O)O)[C@@H](O)[C@H]1O [adenosine triphosphate]
Assay: NP40-soluble protein abundance relative to vehicle (solubility fold change) (ratio); higher = more soluble protein in presence of ATP
Summary of the method: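 Eight concentrations, 0.1 to 10 mM, were tested on Jurkat crude lysate for 10 min at room temperature and then 3 min at 37 °C, in three independent experiments. The lysate was solubilised with 0.8% NP40 and benzonase, ultracentrifuged, and the supernatant TMT-labelled for LC-MS/MS. Each value is the fold change against the detergent-processed vehicle in its own replicate, from vsn-normalised intensities.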

Q: For “B4DJL6 and related entries (UniProt Q96SY0)”, which NP40-soluble protein abundance (concentration: 0.1mM) is on record?
A: 0.983 ± 0.031

Q: What about the NP40-soluble protein abundance (concentration: 0.5mM) of the same target?
A: 1.03 ± 0.018

Q: How did the NP40-soluble protein abundance (concentration: 0.1mM) turn out when A0A140T9L0|O15213 (UniProt O15213) was run?
A: 1.12 ± 0.073

Q: What about the NP40-soluble protein abundance (concentration: 0.5mM) of the same target?
A: 1.11 ± 0.16

Q: Which NP40-soluble protein abundance (concentration: 0.1mM) does the source give for “C9J7K9 and related entries (UniProt O15162)” here?
A: 0.95 ± 0.11

Q: And the NP40-soluble protein abundance (concentration: 0.5mM)?
A: 0.919 ± 0.2

Q: Which results are given for “A0A0U1RR27|Q7Z401 and related entries (UniProt Q7Z401)”?
A: NP40-soluble protein abundance (concentration: 0.1mM): 0.982 ± 0.08; NP40-soluble protein abundance (concentration: 0.5mM): 0.986 ± 0.075

Q: Which NP40-soluble protein abundance (concentration: 0.1mM) does the source give for “C9J9P8 and related entries (UniProt Q969M7)” here?
A: 0.928 ± 0.079

Q: And the NP40-soluble protein abundance (concentration: 0.5mM)?
A: 0.925 ± 0.11

Q: Which results are given for B7Z4W5 (UniProt Q16773)?
A: NP40-soluble protein abundance (concentration: 0.1mM): 1.05 ± 0.17; NP40-soluble protein abundance (concentration: 0.5mM): 1.01 ± 0.037

Q: For FAM171A2 (UniProt A8MVW0), which NP40-soluble protein abundance (concentration: 0.1mM) is on record?
A: 0.947 ± 0.1

Q: What about the NP40-soluble protein abundance (concentration: 0.5mM) of the same target?
A: 0.901 ± 0.059

Q: For MEX3A (UniProt A1L020), which NP40-soluble protein abundance (concentration: 0.1mM) is on record?
A: 1.01 ± 0.1

Q: And the NP40-soluble protein abundance (concentration: 0.5mM)?
A: 1.03 ± 0.039

Q: For “A0A0G2JNB1|A0A0G2JNT7|Q7Z3B3 and related entries (UniProt Q7Z3B3)”, which NP40-soluble protein abundance (concentration: 0.1mM) is on record?
A: 0.98 ± 0.053

Q: What about the NP40-soluble protein abundance (concentration: 0.5mM) of the same target?
A: 1.05 ± 0.084

Q: With “B4DKD5 and related entries (UniProt Q7Z6M4)” as the target, how does the NP40-soluble protein abundance (concentration: 0.1mM) read?
A: 1.05 ± 0.056

Q: What about the NP40-soluble protein abundance (concentration: 0.5mM) of the same target?
A: 0.936 ± 0.014

Q: What does the source list for “C9JFR7 and related entries (UniProt P99999)”?
A: NP40-soluble protein abundance (concentration: 0.1mM): 0.987 ± 0.091; NP40-soluble protein abundance (concentration: 0.5mM): 0.934 ± 0.14

Q: For “A4D1U4 and related entries (UniProt C9J7X6+A4D1U4)”, which NP40-soluble protein abundance (concentration: 0.1mM) is on record?
A: 1.16 ± 0.068

Q: And the NP40-soluble protein abundance (concentration: 0.5mM)?
A: 1.09 ± 0.024

Q: What does the source list for “A8K878 and related entries (UniProt P55145)”?
A: NP40-soluble protein abundance (concentration: 0.1mM): 0.862 ± 0.098; NP40-soluble protein abundance (concentration: 0.5mM): 0.86 ± 0.13

Q: “B4DDG0 and related entries (UniProt P41732+B4E171+B4DDG0)” was tested. Which NP40-soluble protein abundance (concentration: 0.1mM) did it give?
A: 0.975 ± 0.059

Q: What about the NP40-soluble protein abundance (concentration: 0.5mM) of the same target?
A: 0.882 ± 0.063

Q: With A0A0G2JJD3|O95870 (UniProt O95870) as the target, how does the NP40-soluble protein abundance (concentration: 0.1mM) read?
A: 1.05 ± 0.061

Q: And the NP40-soluble protein abundance (concentration: 0.5mM)?
A: 1.02 ± 0.058

Q: How did the NP40-soluble protein abundance (concentration: 0.1mM) turn out when “C9J4Z3 and related entries (UniProt P61513)” was run?
A: 1.02 ± 0.13

Q: What about the NP40-soluble protein abundance (concentration: 0.5mM) of the same target?
A: 0.937 ± 0.095

Q: For “C9IZL5 and related entries (UniProt O00189)”, which NP40-soluble protein abundance (concentration: 0.1mM) is on record?
A: 1.07 ± 0.15

Q: And the NP40-soluble protein abundance (concentration: 0.5mM)?
A: 1.07 ± 0.1

Q: How did the NP40-soluble protein abundance (concentration: 0.1mM) turn out when “B7WPL0 and related entries (UniProt Q9NVN3)” was run?
A: 1 ± 0.022

Q: What about the NP40-soluble protein abundance (concentration: 0.5mM) of the same target?
A: 0.996 ± 0.048

Q: Which NP40-soluble protein abundance (concentration: 0.1mM) does the source give for UniProt A5PLN9 and related entries here?
A: 1.02 ± 0.044

Q: And the NP40-soluble protein abundance (concentration: 0.5mM)?
A: 1.01 ± 0.03

Q: “C9JAX1 and related entries (UniProt Q16595)” was tested. Which NP40-soluble protein abundance (concentration: 0.1mM) did it give?
A: 0.901 ± 0.13

Q: What about the NP40-soluble protein abundance (concentration: 0.5mM) of the same target?
A: 0.904 ± 0.18

Q: “B4DEM9 and related entries (UniProt Q9Y2S7)” was tested. Which NP40-soluble protein abundance (concentration: 0.1mM) did it give?
A: 1.08 ± 0.12

Q: What about the NP40-soluble protein abundance (concentration: 0.5mM) of the same target?
A: 1.06 ± 0.093

Q: How did the NP40-soluble protein abundance (concentration: 0.1mM) turn out when “C9J2U0 and related entries (UniProt P24864)” was run?
A: 1.05 ± 0.06

Q: And the NP40-soluble protein abundance (concentration: 0.5mM)?
A: 1.01 ± 0.088

Q: Which results are given for “B8ZZC8 and related entries (UniProt Q9NRN9)”?
A: NP40-soluble protein abundance (concentration: 0.1mM): 1.1 ± 0.094; NP40-soluble protein abundance (concentration: 0.5mM): 1.05 ± 0.07

Q: “A9UF01 and related entries (UniProt P11274)” was tested. Which NP40-soluble protein abundance (concentration: 0.1mM) did it give?
A: 1.03 ± 0.045

Q: And the NP40-soluble protein abundance (concentration: 0.5mM)?
A: 0.999 ± 0.053

Q: For “A8MU27 and related entries (UniProt P55854)”, which NP40-soluble protein abundance (concentration: 0.1mM) is on record?
A: 0.884 ± 0.098

Q: And the NP40-soluble protein abundance (concentration: 0.5mM)?
A: 0.855 ± 0.21

Q: With “D3YTA9 and related entries (UniProt H7BYZ3+F6U1T9+P63098+D3YTA9)” as the target, how does the NP40-soluble protein abundance (concentration: 0.1mM) read?
A: 0.937 ± 0.012

Q: And the NP40-soluble protein abundance (concentration: 0.5mM)?
A: 0.875 ± 0.077

Q: With “B1AKC9 and related entries (UniProt P29323)” as the target, how does the NP40-soluble protein abundance (concentration: 0.1mM) read?
A: 1.03 ± 0.16

Q: What about the NP40-soluble protein abundance (concentration: 0.5mM) of the same target?
A: 1.03 ± 0.17

Q: For “D6RA92 and related entries (UniProt Q9UM13)”, which NP40-soluble protein abundance (concentration: 0.1mM) is on record?
A: 1.07 ± 0.078

Q: What about the NP40-soluble protein abundance (concentration: 0.5mM) of the same target?
A: 1.11 ± 0.062

Q: For “B8ZZ50 and related entries (UniProt O60573)”, which NP40-soluble protein abundance (concentration: 0.1mM) is on record?
A: 0.966 ± 0.028

Q: And the NP40-soluble protein abundance (concentration: 0.5mM)?
A: 1.08 ± 0.018

Q: Which results are given for UniProt B4DLN1?
A: NP40-soluble protein abundance (concentration: 0.1mM): 0.952 ± 0.018; NP40-soluble protein abundance (concentration: 0.5mM): 0.907 ± 0.016

Q: For “B7ZM99 and related entries (UniProt Q6UB35)”, which NP40-soluble protein abundance (concentration: 0.1mM) is on record?
A: 1.03 ± 0.059

Q: And the NP40-soluble protein abundance (concentration: 0.5mM)?
A: 1.05 ± 0.043

Q: With “B4E0E3 and related entries (UniProt Q9H6X4)” as the target, how does the NP40-soluble protein abundance (concentration: 0.1mM) read?
A: 0.98 ± 0.11

Q: And the NP40-soluble protein abundance (concentration: 0.5mM)?
A: 0.853 ± 0.039

Q: With UniProt A2RRP1 and related entries as the target, how does the NP40-soluble protein abundance (concentration: 0.1mM) read?
A: 1.04 ± 0.04

Q: What about the NP40-soluble protein abundance (concentration: 0.5mM) of the same target?
A: 1.02 ± 0.032

Q: Which NP40-soluble protein abundance (concentration: 0.1mM) does the source give for “A6NK28 and related entries (UniProt Q13163)” here?
A: 0.991 ± 0.097

Q: And the NP40-soluble protein abundance (concentration: 0.5mM)?
A: 1.22 ± 0.28

Q: With UniProt A6NJ78 as the target, how does the NP40-soluble protein abundance (concentration: 0.1mM) read?
A: 0.973 ± 0.056

Q: What about the NP40-soluble protein abundance (concentration: 0.5mM) of the same target?
A: 0.938 ± 0.14

Q: What does the source list for “A0A0U1RQS4|A0A0U1RR93|Q9BYB0 and related entries (UniProt Q9BYB0)”?
A: NP40-soluble protein abundance (concentration: 0.1mM): 1.01 ± 0.017; NP40-soluble protein abundance (concentration: 0.5mM): 0.958 ± 0.028

Q: Which NP40-soluble protein abundance (concentration: 0.1mM) does the source give for “D6RAM1 and related entries (UniProt P31943)” here?
A: 1.04 ± 0.035

Q: What about the NP40-soluble protein abundance (concentration: 0.5mM) of the same target?
A: 1.06 ± 0.042

Q: Which results are given for “B4E3Q4 and related entries (UniProt Q9NZK5)”?
A: NP40-soluble protein abundance (concentration: 0.1mM): 1.04 ± 0.024; NP40-soluble protein abundance (concentration: 0.5mM): 0.994 ± 0.033

Q: Which NP40-soluble protein abundance (concentration: 0.1mM) does the source give for “A0A0U1RRM6|Q8N8S7 and related entries (UniProt Q8N8S7)” here?
A: 1.01 ± 0.055

Q: What about the NP40-soluble protein abundance (concentration: 0.5mM) of the same target?
A: 0.992 ± 0.078

Q: What does the source list for “B4DRN8 and related entries (UniProt Q5W0Z9)”?
A: NP40-soluble protein abundance (concentration: 0.1mM): 1.03 ± 0.07; NP40-soluble protein abundance (concentration: 0.5mM): 1.07 ± 0.048

Q: With “B4DH95 and related entries (UniProt Q6P9H5)” as the target, how does the NP40-soluble protein abundance (concentration: 0.1mM) read?
A: 0.998 ± 0.047

Q: And the NP40-soluble protein abundance (concentration: 0.5mM)?
A: 1 ± 0.032

Q: With “D6RA71 and related entries (UniProt P78317)” as the target, how does the NP40-soluble protein abundance (concentration: 0.1mM) read?
A: 0.938 ± 0.075

Q: What about the NP40-soluble protein abundance (concentration: 0.5mM) of the same target?
A: 0.98 ± 0.015

Q: How did the NP40-soluble protein abundance (concentration: 0.1mM) turn out when “C9J8B8 and related entries (UniProt Q969S8)” was run?
A: 0.889 ± 0.059

Q: What about the NP40-soluble protein abundance (concentration: 0.5mM) of the same target?
A: 0.919 ± 0.064

Q: UniProt A3KMH1 and related entries was tested. Which NP40-soluble protein abundance (concentration: 0.1mM) did it give?
A: 1.019 ± 0.0077

Q: What about the NP40-soluble protein abundance (concentration: 0.5mM) of the same target?
A: 0.979 ± 0.029
